Results reported in doi:10.1101/2025.06.17.660196.
These are yes or no findings as the source states them, for the method shown. In cells and extracts the contact can be indirect. Some entries that bind do so weakly or less than the wild type. Tags and fused reporters may be left off the sequences shown.

Biological target: T1, FLAG-Strep-Med19 (endogenous 3xFLAG/Twin Strep tagged Med19) (rat (endogenous in INS-1)) (UniProt D3ZAP1)
T1 sequence: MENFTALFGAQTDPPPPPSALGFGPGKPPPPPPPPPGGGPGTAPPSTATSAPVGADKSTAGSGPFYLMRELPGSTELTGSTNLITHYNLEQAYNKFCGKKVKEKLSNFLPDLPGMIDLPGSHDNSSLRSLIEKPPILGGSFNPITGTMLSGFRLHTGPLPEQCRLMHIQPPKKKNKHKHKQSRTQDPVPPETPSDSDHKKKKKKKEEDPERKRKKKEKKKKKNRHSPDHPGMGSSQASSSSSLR
Assay: co-IP; anti-FLAG (M2 agarose) immunoprecipitates of endogenous FLAG-Strep-Med19 from INS-1 extracts, Med14 WT and Med14 S983A knock-in lines; immunoblot; cells treated with FSK, H-89 or Ex-4 (10 nM) as indicated

- binding: binds
B1: Cdk8 (protein, UniProt A0A8I5ZVW8 1-507)
chain: MDYDFKVKLSSERERVEDLFEYEGCKVGRGTYGHVYKAKRKDGKDDKDYALKQIEGTGISMSACREIALLRELKHPNVISLQKVFLSHADRKVWLLFDYAEHDLWHIIKFHRASKANKKPVQLPRGMVKSLLYQILDGIHYLHANWVLHRDLKPANILVMGEGPERGRVKIADMGFARLFNSPLKPLADLDPVVVTFWYRAPELLLGARHYTKAIDIWAIGCIFAELLTSEPIFHCRQEDIKTSNPYHHDQLDRIFNVMGFPADKDWEDIKKMPEHSTLMKDFRRNTYTNCSLIKYMEKHKVKPDSKAFHLLQKLLTMDPIKRITSEQAMQDPYFLEDPLPTSDVFAGCQIPYPKREFLTEEEPDEKGDKKNQQQQQGNNHTNGTGHPGNQDSGHAQGPPLKKVRVVPPTTTSAFQSTCCLSQPWTKHITAPEQHGILSYLPAASTVLTSDTSVLSCAGVCPCTVAHAAGLAAALCGNLVWAMRMYCTTTSSQCPVAEFHSCHRSGR
